{"source": "paper PMC6948331", "target": "T1, Dual-specificity phosphatase 6 (human (endogenous in human OS cells)) (UniProt Q16828)", "T1 sequence": "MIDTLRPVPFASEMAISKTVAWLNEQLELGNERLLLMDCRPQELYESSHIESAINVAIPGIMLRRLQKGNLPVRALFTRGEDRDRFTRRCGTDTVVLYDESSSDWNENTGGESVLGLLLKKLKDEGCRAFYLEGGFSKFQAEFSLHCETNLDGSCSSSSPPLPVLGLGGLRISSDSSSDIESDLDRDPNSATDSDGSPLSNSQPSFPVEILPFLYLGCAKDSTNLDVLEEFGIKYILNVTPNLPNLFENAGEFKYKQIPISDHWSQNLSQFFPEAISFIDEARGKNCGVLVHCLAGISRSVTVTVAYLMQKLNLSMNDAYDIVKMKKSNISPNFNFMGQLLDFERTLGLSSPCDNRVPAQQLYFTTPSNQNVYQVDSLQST", "test": "co-IP; whole-cell extracts of OS cells incubated with the appropriate antibodies plus Protein A/G beads overnight; beads washed five times; SDS-PAGE and western blot; which protein was precipitated is not told", "note": "No constants are given. Whether binding was seen depends on the method and setting. In cells and extracts the contact can be indirect. Some binding calls cover weakened binding; strength is not graded here.", "data": [{"binder": "Tripartite Motif Containing 11 (protein, UniProt Q96F44-1 1-468) MAAPDLSTNLQEEATCAICLDYFTDPVMTDCGHNFCRECIRRCWGQPEGPYACPECRELSPQRNLRPNRPLAKMAEMARRLHPPSPVPQGVCPAHREPLAAFCGDELRLLCAACERSGEHWAHRVRPLQDAAEDLKAKLEKSLEHLRKQMQDALLFQAQADETCVLWQKMVESQRQNVLGEFERLRRLLAEEEQQLLQRLEEEELEVLPRLREGAAHLGQQSAHLAELIAELEGRCQLPALGLLQDIKDALRRVQDVKLQPPEVVPMELRTVCRVPGLVETLRRFRGDVTLDPDTANPELILSEDRRSVQRGDLRQALPDSPERFDPGPCVLGQERFTSGRHYWEVEVGDRTSWALGVCRENVNRKEKGELSAGNGFWILVFLGSYYNSSERALAPLRDPPRRVGIFLDYEAGHLSFYSATDGSLLFIFPEIPFSGTLRPLFSPLSSSPTPMTICRPKGGSGDTLAPQ", "values": [{"measurement": "binding", "value": "binds"}]}]}
